Some entries share one result that the patent states for a list of compounds.
Tested on: human pancreatic MiaPaCa-2
Assay: antitumor activity against subcutaneous MiaPaCa-2 xenografts
Assay type: in vivo, nude mice
Settings: 21 days
Description: The human pancreatic cancer cell line MiaPaCa-2 (American Type Culture Collection, Manassas Va.), was cultured in MEM medium containing 10% fetal bovine serum, 1% essential amino acid, 1% sodium pyruvate (Life Technologies, Carlsbad, Calif.). […] Cells were re-suspended in PBS (Life Technologies, Carlsbad, Calif.) and then mixed 1:1 with Matrigel (BD Biosciences, San Jose, Calif.). Cells were stored at 4° C. until implantation. MiaPaCa-2 cells (10×10^6 in a 200 μl PBS:Matrigel (1:1) suspension) were subcutaneously injected into the right flank area of female nude (Crl:NU-Foxn1nu) mice (6-8 weeks old, Charles River Laboratories, Wilmington, Mass.). All mice in this study were used according to the guidelines approved by the EMD-Serono Institutional Care and Animal Use Committee (IACUC), #07-003. Developing tumors located in the right flank area of female nude mice were measured over time with digital calipers. […] The remaining tumor-bearing mice were randomized into seven experimental groups (n=9), so that each group had the same mean tumor volume. […] The treatments began on the seventh day following implantation of the Miapaca-2 cells, which was designated as Day 0 for data evaluation purposes. […] Body weights and tumor volumes were assessed twice per week post treatment initiation. […] Efficacy was determined by analyzing tumor volumes and the percent ΔT/ΔC (% ΔT/ΔC). Tumor volume was determined by using the tumor length (1) and width (w) measurements and calculating the volume with the equation 1*w^2/2. The length was measured along the longest axis of the tumor and width was measured perpendicular to that length. The mean percent of actual tumor growth inhibited by the treatments was calculated as follows: [% ΔT/ΔC=(([…]))×100%], where TV=tumor volume, f=final, i=initial and Ctrl=control group. Tolerability was assessed by regarding percent body weight difference during the treatment period. Percent body weight difference was calculated as follows: [% Body weight difference=(BWc-BWi)/BWi×100%], where BW=body weight, c=current, i=initial.

O=C(NC[C@H](O)CO)c1ccncc1Nc1ccc(I)cc1F [Compound (1), N—((S)-2,3-dihydroxypropyl)-3-(2-fluoro-4-iodo-phenylamino)isonicotinamide]
% ΔT/ΔC (AS703026 5 mg/kg po QD): > 40%

COc1ccc(Cl)c(Nc2nc3ccccc3nc2NS(=O)(=O)c2cccc(NC(=O)C(C)(C)N)c2)c1 [Compound (2a), N-(3-{[(3-{[2-chloro-5-(methoxy)phenyl]amino}quinoxalin-2-yl)amino]sulfonyl}phenyl)-2-methylalaninamide]
% ΔT/ΔC (XL-147 50 mg/kg po QD): > 40%

CCn1c(=O)c(-c2ccn[nH]2)cc2c(C)nc(N)nc21 [Compound (2b), 2-amino-8-ethyl-4-methyl-6-(1H-pyrazol-5-yl)pyrido[2,3-d]pyrimidin-7(8H)-one]
% ΔT/ΔC (XL-765 30 mg/kg po QD): > 40%

— patent US20140024653A1, “COMPOSITIONS AND METHODS FOR TREATING CANCER USING PI3K INHIBITOR AND MEK INHIBITOR” (priority 2011, published 2014)
